The results in this text go back to patent US10513521B2, “Compositions and methods for inhibiting BMP” (The Brigham and Women's Hospital, Inc., priority 2014, dated 2019).

By UniProt entry, the sequences of proteins in these tests, tags left out. Residues count along the entry.
UniProt O00238, 14-502 limits assumed: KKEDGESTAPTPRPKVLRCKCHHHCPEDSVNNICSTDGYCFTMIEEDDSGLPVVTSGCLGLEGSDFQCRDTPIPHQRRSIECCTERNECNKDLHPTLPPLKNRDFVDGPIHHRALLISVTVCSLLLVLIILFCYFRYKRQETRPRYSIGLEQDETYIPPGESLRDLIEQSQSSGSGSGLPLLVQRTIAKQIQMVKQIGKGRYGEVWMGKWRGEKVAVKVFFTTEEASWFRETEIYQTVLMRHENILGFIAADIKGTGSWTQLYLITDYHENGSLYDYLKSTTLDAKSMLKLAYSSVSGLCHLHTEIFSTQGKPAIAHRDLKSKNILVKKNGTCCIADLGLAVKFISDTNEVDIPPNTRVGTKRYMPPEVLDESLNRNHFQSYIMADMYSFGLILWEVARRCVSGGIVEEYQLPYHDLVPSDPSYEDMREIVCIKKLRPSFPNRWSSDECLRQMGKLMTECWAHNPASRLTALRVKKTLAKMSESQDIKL
UniProt P36894, 24-532 limits assumed: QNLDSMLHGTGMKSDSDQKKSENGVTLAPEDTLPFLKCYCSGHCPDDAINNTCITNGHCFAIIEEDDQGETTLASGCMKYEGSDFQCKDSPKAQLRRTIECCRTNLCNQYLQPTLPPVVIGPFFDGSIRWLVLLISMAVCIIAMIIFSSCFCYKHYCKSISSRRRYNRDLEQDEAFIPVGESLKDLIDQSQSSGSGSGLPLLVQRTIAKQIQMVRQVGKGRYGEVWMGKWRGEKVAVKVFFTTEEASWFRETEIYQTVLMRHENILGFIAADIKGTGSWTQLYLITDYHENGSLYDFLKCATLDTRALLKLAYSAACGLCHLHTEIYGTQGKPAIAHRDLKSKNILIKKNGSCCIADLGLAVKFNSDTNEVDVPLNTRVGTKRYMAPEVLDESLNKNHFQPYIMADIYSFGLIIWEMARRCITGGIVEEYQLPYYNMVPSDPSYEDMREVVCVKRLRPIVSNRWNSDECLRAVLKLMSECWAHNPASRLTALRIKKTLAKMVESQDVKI
UniProt P36896, 24-505 limits assumed: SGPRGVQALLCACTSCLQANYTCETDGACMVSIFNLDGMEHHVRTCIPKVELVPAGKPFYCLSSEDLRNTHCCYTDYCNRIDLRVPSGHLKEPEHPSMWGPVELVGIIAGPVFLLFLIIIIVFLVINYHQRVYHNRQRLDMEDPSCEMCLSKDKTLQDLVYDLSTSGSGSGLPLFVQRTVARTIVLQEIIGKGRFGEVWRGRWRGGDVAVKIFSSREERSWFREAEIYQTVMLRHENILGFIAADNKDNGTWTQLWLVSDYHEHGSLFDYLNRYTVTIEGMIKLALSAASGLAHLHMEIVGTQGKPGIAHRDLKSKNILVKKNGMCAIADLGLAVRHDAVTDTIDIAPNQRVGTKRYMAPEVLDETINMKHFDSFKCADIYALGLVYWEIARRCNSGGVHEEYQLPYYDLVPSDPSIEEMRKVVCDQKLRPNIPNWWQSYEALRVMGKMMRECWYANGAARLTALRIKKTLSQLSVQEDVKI
UniProt P36897, 34-503 limits assumed: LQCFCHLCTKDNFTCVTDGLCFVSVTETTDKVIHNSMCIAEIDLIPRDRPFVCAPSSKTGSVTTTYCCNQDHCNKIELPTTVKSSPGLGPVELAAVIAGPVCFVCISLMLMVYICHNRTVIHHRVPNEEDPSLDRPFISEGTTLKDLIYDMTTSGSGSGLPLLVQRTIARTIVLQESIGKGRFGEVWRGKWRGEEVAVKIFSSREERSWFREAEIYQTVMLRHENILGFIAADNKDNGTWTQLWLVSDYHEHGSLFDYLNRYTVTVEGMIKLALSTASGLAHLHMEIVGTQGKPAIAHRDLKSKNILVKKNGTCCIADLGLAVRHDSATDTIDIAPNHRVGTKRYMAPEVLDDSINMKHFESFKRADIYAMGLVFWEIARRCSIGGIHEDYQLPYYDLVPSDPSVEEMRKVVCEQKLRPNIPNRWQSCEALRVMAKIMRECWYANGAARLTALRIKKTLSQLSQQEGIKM
UniProt P37023, 22-503 limits assumed: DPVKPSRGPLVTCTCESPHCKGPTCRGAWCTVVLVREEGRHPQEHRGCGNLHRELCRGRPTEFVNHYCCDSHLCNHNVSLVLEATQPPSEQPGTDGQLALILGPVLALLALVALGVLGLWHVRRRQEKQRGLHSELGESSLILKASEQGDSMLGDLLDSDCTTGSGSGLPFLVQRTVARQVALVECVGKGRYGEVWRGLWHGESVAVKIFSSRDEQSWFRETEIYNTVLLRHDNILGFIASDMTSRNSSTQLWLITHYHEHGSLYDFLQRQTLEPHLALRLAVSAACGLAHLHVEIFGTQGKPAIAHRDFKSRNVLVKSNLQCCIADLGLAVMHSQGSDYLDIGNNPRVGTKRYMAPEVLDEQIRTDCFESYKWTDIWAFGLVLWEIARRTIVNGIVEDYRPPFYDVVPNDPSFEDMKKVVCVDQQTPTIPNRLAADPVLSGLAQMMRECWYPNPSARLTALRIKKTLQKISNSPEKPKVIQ

The target of one assay is ALK6 (Homo sapiens, UniProt O00238). The assay can be described thus: TR-FRET enzymatic ALK kinase assay, ALK6. The note with it: read-out: Kinase Assay ALK6; enzyme assay. A general note: Time-resolved FRET reads energy transfer from a long-lived donor to a nearby acceptor.
Another assay addresses ALK3 (Homo sapiens, UniProt P36894). The assay can be described thus: TR-FRET enzymatic ALK kinase assay, ALK3. The note with it: read-out: Kinase Assay ALK3; enzyme assay.
For another assay, the target named is ALK4 (Homo sapiens, UniProt P36896). Briefly: TR-FRET enzymatic ALK kinase assay, ALK4. Conditions: read-out: Kinase Assay ALK4; enzyme assay.
The target in the next assay is ALK5 (Homo sapiens, UniProt P36897). Briefly: TR-FRET enzymatic ALK kinase assay, ALK5. The note with it: read-out: Kinase Assay ALK5; enzyme assay.
For another assay, the target named is ALK1 (Homo sapiens, UniProt P37023). Briefly: TR-FRET enzymatic ALK kinase assay, ALK1. The note with it: read-out: Kinase Assay ALK1; enzyme assay.

The match of structure and compound is tentative.

Turning to `CS(=O)(=O)c1cccc(-c2cnn3cc(-c4ccc(OC5(CN6CCC(O)C6)CC5)cc4)cnc23)c1` (centres unmarked) [Compound 195, 1-((1-(4-(3-(3-(methylsulfonyl)phenyl)pyrazolo[1,5-a]pyrimidin-6-yl)phenoxy)cyclopropyl)methyl)pyrrolidin-3-ol], the IC50 at ALK6 is more than 10000 nM; at ALK3, 850 nM; on ALK4, more than 10000 nM; at ALK5, more than 10000 nM; on ALK1 it was 390 nM.
